Earlier results as cited in US7147824B2, “Method for suppressing growth of mycobacteria in metalworking fluids” (priority 2003, dated 2006).
In brackets after ≈: the same amount, converted by molar mass. For at least one compound, name, drawing or mass did not settle the structure. Some of these results come from one statement about several compounds together.

Test system: Mycobacterium immunogenum isolate
Conditions: Mycobacterium immunogenum isolate from MWF (ATCC 700506); cited from earlier work

SMILES | MIC [µg/mL]
O=C(O)c1cn(C2CC2)c2cc(N3CCNCC3)c(F)cc2c1=O [ciprofloxacin] | > 16
C[C@@H](O)[C@H]1C(=O)N2C(C(=O)O)=C(SCCN=CN)C[C@H]12 [imipenem] | 16 (≈ 53.4 µM)
NC[C@H]1O[C@H](O[C@H]2[C@H](O)[C@@H](O[C@H]3O[C@H](CO)[C@@H](O)[C@H](N)[C@H]3O)[C@H](N)C[C@@H]2N)[C@H](N)C[C@@H]1O [tobramycin] | > 16
